# Library screen at single concentrations

Chains of the proteins cited; added tags and fusions are not shown. Residues count along the entry.
UniProt I6X8D2, whole entry: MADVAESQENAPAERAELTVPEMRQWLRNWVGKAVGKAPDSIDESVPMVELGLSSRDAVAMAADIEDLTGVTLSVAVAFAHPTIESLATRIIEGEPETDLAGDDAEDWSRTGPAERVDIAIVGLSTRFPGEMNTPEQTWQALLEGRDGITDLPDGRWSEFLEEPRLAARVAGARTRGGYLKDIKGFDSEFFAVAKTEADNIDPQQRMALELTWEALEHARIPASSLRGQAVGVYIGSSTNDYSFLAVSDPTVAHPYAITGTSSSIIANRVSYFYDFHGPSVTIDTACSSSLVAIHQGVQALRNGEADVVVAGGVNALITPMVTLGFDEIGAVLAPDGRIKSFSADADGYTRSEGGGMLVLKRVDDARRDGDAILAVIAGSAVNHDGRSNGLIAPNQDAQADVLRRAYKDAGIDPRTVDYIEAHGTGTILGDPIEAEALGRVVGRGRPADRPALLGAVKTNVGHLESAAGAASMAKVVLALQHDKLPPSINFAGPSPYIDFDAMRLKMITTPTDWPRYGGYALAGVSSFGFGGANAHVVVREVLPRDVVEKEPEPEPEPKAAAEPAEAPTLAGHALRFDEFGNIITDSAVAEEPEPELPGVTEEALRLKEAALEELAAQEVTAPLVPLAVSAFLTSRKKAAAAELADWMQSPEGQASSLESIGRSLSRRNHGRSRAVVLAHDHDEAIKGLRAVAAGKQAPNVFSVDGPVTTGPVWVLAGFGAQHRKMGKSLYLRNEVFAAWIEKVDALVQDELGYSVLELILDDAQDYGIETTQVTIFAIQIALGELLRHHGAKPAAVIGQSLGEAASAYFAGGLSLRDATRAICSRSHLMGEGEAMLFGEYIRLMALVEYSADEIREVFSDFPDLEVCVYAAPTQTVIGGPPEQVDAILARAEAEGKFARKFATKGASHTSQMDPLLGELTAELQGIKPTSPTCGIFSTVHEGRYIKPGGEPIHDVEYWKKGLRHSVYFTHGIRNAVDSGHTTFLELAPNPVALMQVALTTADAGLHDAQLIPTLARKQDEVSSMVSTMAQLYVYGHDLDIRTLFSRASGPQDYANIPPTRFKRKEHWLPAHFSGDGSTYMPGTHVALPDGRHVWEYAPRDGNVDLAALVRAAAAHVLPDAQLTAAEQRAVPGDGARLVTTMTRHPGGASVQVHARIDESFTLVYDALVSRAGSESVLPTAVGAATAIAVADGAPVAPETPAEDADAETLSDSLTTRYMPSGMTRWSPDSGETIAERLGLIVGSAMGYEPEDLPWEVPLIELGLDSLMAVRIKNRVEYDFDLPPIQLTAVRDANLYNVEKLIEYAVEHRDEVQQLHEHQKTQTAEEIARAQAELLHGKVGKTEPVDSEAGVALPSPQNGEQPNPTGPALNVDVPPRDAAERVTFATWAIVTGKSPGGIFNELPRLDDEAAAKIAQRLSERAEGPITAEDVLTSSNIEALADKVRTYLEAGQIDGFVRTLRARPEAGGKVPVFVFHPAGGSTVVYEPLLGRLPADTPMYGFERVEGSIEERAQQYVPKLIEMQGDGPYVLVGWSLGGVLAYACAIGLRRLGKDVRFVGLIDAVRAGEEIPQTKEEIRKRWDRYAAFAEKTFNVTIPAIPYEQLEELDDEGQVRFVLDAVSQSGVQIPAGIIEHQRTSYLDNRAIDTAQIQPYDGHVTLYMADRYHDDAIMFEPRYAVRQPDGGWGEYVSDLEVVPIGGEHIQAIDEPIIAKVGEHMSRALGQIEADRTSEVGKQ
UniProt P9WNZ1, whole entry: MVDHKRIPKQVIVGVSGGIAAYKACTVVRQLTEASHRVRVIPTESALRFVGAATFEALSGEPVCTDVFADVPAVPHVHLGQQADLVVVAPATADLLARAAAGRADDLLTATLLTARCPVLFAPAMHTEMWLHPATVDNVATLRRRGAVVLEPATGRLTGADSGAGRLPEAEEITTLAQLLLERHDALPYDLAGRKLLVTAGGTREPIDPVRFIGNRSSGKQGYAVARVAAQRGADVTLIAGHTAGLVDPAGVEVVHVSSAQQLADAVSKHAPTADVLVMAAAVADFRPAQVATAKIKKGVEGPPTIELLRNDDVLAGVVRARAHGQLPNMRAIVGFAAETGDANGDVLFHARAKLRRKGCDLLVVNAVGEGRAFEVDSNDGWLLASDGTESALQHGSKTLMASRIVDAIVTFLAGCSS
UniProt P9WFT3, whole entry: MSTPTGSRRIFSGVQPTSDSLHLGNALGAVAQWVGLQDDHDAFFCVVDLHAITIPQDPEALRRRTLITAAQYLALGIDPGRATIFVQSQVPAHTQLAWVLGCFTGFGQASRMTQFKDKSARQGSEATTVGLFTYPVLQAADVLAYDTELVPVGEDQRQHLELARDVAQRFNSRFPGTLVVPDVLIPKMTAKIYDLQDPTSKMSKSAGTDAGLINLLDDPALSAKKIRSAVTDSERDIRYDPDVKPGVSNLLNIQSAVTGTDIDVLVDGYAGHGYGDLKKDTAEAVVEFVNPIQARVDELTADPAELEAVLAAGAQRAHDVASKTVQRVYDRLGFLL
UniProt A4I591, 1-473: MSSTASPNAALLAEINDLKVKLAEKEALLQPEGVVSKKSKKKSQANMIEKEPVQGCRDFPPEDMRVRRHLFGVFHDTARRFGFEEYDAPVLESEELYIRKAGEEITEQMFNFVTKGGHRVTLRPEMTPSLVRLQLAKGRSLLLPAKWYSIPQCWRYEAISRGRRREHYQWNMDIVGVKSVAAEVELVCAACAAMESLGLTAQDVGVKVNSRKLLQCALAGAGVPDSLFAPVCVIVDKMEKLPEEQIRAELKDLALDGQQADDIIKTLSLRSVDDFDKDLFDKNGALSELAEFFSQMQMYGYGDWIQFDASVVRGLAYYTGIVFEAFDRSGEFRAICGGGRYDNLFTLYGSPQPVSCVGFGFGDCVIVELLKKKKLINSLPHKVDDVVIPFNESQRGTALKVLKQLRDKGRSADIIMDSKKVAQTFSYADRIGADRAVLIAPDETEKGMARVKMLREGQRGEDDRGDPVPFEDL
UniProt Q4DA54, 1-478: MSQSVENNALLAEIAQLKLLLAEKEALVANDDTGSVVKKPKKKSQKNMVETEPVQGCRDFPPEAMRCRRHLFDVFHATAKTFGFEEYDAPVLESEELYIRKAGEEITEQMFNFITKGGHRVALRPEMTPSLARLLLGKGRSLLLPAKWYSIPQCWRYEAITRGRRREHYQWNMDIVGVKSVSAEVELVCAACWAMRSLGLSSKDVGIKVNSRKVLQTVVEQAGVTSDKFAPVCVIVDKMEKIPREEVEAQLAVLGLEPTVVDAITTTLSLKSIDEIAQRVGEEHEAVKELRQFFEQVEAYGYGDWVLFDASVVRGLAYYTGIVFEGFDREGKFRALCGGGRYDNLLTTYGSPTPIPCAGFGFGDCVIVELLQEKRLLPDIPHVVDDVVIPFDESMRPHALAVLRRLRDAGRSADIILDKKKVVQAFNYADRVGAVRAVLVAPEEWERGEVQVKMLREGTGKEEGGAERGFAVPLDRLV

From ChEMBL document CHEMBL3988442, “University of Dundee, Small-Polar-MMV Screening Library” (2021).

The filed quantity is “Percent Effect” (%).
How 0% and 100% were set is not recorded. Most values in the screen are low, and negative values occur.
Compounds were drawn at random from those tested, without regard to their results.
Two or more numbers in one place are separate tests of the same structure; such repeats can differ widely.
A dash means the value is not listed here; it may have been measured.

Pks13 thioesterase: 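Enzyme assay of the thioesterase domain of polyketide synthase 13; the read-out is not stated. Target: Polyketide synthase Pks13, Mycobacterium tuberculosis (UniProt I6X8D2). Tested at 30 µM. Higher reads as stronger inhibition (inferred from which compounds were picked for retests). About 67,000 compounds were tested under these conditions; 0.46% (about 300) showed 50% or more at least once.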
Toxoplasma: 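Assay of Toxoplasma gondii numbers, read through their beta-galactosidase reporter with a colour substrate. Tested at 10 µM. The record gives no direction; the compounds picked for IC50 retests had high values, so higher reads as fewer parasites. Size under these conditions: about 67,000 compounds, about 260 of them at 50% or above in at least one test.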
CoaBC: 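Enzyme assay of CoaBC with a phosphate dye (Biomol Green) read at 650 nm. Target: Coenzyme A biosynthesis protein CoaBC, Mycobacterium tuberculosis (UniProt P9WNZ1). Tested at 30 µM. Higher reads as stronger inhibition, judged from the few compounds that gave an IC50. Most strong results did not repeat in a second test. Size under these conditions: about 67,000 compounds, about 40 of them at 50% or above in at least one test.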
MtTrpRS: 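Enzyme assay of tryptophanyl-tRNA synthetase; the read-out is not stated. Target: Tryptophan-tRNA ligase, Mycobacterium tuberculosis (UniProt P9WFT3). Compounds at 10 µM. Higher most likely means stronger inhibition; the record gives no direction and few retests gave an IC50. Size under these conditions: about 65,000 compounds, about 64 of them at 50% or above in at least one test.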
LiHisRS: 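Histidine-tRNA ligase, Leishmania infantum (UniProt A4I591). Enzyme assay of histidyl-tRNA synthetase; the read-out is not stated. Concentration: 30 µM. Direction is inferred from retests: higher values go with stronger inhibition. The assay is labelled LdHisRS but filed under L. infantum. Size under these conditions: about 69,000 compounds, about 410 of them at 50% or above in at least one test.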
TcHisRS: 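Histidine-tRNA ligase, Trypanosoma cruzi CL Brener (UniProt Q4DA54). Enzyme assay of histidyl-tRNA synthetase; the read-out is not stated. Tested at 30 µM. Higher reads as stronger inhibition (inferred: compounds with an IC50 in retests scored well above the rest). Size under these conditions: about 69,000 compounds, about 31 of them at 50% or above in at least one test.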

structure	Pks13 thioesterase	Toxoplasma	CoaBC	MtTrpRS	LiHisRS	TcHisRS
O=C(O)C(F)(F)F.O=C(c1ccncc1F)N1CCc2ncnc(C3CC3)c2CC1	-	-12.93	-	-	-	-
Cc1ccc(CN2CCOC3(CCN(C(=O)N4CCCC4)CC3)C2)cc1	-22.63	-	1.903	-1.057	17.54	10.75
O=C1CCCc2cc(-c3csc(CCN4CCOC4=O)n3)ccc2N1	-8.989	6.882	2.892	-1.039	30.14	0
CCOC1CCN(C(=O)c2c(Cl)c3ccccc3n2C)CC1	-9.572	-1.322	-3.571	-0.3552	18.45	2.905
[H][C@@]12CN(CCCc3ccccc3)C[C@]1([H])OCC(=O)N2Cc1nccn1C	-	-4.204	-	-	-	-
CN(Cc1ccccc1)CC1CC2(CO1)CN(Cc1nccs1)C2 (centres undefined)	-11.78	-0.6772	-17.89	2.151	13.27	4.301
CCS(=O)(=O)c1nnc([C@@H](N)Cc2ccccc2)o1	-3.957	3.114	-1.695	-1.075	-2.174	7
O=C(NC[C@@H]1CCCO1)c1cc(Br)cnc1N1CCCCC1	38.86	-10.46	-0.2427	-	15.84	2.273
O=C1CC(NCc2cnc(C3CCCCC3)nc2)CN1c1ccccc1 (centres undefined)	-17.97	-0.23	4.819	3.367	16.42	3.191
CN(Cc1ccncc1)C(CO)c1cccc(Br)c1 (centres undefined)	28.23	-8.093	3.165	-1.903	8.434	-10.98
CC(Nc1cccc(CN2CCOC2=O)c1)C(=O)Nc1ccccc1F (centres undefined)	6.77	-10.45	2.85	2.153	6.383	4.58
O=C(O)C(F)(F)F.[H][C@@]12COC[C@@H](CC(=O)N3CCCC3)[C@]1([H])CN(C(=O)c1cccc(C)n1)C2	-	-31.45	-	-	-	-
COc1cccc2ccc(CN3CCN(c4ccncc4)CC3)nc12	-59.03	0.2647	7.353	0.4938	15.56	4.762
Cc1ccc(-c2nnc(CN3CCCC(O)(CO)CC3)o2)n1C (centres undefined)	-7.042	6.555	1.205	13.38	31.34	0
[H][C@]12CCCCN1CCC[C@@]2(O)CN(C)Cc1nc(CC(C)C)no1	-	6.044	-	-	-	-
Cc1oncc1C(=O)N1CCc2ncnc(-c3cnn(C)c3)c2CC1.O=C(O)C(F)(F)F	-	-3.713	-	-	-	-
CCOc1cc(/C=C/c2ncc(C(=O)O)s2)cc(Cl)c1OC	27.85	-4.556	6.527	-1.267	16.22	4.887
Cn1cc(Br)c(=O)c(NS(=O)(=O)c2cc(F)ccc2Cl)c1	-15.99	16.5	-7.889	2.09	28.85	0
CN(C)[C@@H]1CCN(C(=O)c2cccn2C)[C@H]1Cc1cnn(C)c1	-8.562	-	1.5	0.3127	26	8.824
Cc1c(NCC(C)(C)C)cccc1C(=O)N(C)Cc1ncnn1C	7.641	0.767	0	12.75	15.87	-7.071
Cc1cnc(NC(C)Cc2cccnc2)nc1N(C)C (centres undefined)	-26.83	-7.99	-7.992	1.625	7.143	2.128
OCc1nnc2n1CCN(c1cnccn1)C2	14.31	21.02	-0.4878	-	24.53	7.778
COCCN1CCN(C(=O)NC2CC2)Cc2ccc(C)nc21.O=C(O)C(F)(F)F	-	3.042	-	-	-	-
Cn1ncc2c(=O)[nH]c(CN3CCCC3c3ccsc3)nc21 (centres undefined)	4.533	5.52	0.5102	-5.726	14.55	2.339
CC(C)Oc1cc(N2CCC(N3CCC(O)CC3)CC2)nc(N)n1	-13.1	-2.308	-17.7	-3.793	19.23	2.5
Cc1c(Cl)cccc1NC(=O)c1nc[nH]n1	-31.65	-	-7.363	16.1	-59.15	-33.08
Cc1cc(NC(=O)CN2CCOC(Cn3cccn3)C2)n(C)n1 (centres undefined)	-15.16	-2.422	7.179	2.424	8	6.415
CCOCc1ncn2c1CN(C(=O)Nc1cccc(F)c1)CC2	-11.63	2.93	0.3953	3.223	10.96	4
c1cc(-c2noc(CN3CCc4c(ncn4C4CC4)C3)n2)cs1	-35.03	3.953	1.945	-0.000009	15.87	6.061
CC(C)CNC(=O)CC1(Cn2cnnn2)CCCCC1	-6.328	9.508	2.785	-0.7498	18.42	1.22
CS(=O)(=O)c1ccc(OCCCN2CCc3cncnc3C2)cc1	-21.28	-3.482	3.636	18.3	12.5	-2.882
[H][C@]12CCCCN1CCC[C@H]2Cn1ccnc1-c1cccc2cccnc12	-	5.476	-	-	-	-
Cc1cccc(CN2CCCC(O)(CNCc3ncccc3C)C2=O)c1 (centres undefined)	-24.7	-1.095	-4.321	-6.942	1.075	3.665
COCCN(C)C(=O)NCCc1coc(-c2ccc(C)cc2)n1	-3.96	4.705	1.146	14.42	13.47	-0.5525
CN(C)C(=O)CN1C[C@H]2CCN(c3ncccn3)CC[C@H]2S1(=O)=O	-28.77	-	0.9677	5.112	25	9.453
CN1CCN(Cc2nnc(C3CCN(S(C)(=O)=O)CC3)n2C)CC1	0.784	-8.311	6.709	-1.632	3.614	0
COc1ccccc1CC(C)(C)NC(=O)CC(F)(F)F	-5.567	3.162	-1.984	-4.447	8.036	5.172
O=C(O)C(F)(F)F.O=C1CCC2(CCCN(C(=O)c3ccccn3)CC2)N1 (centres undefined)	-	-5.452	-	-	-	-
Cc1ccc(OCCC(=O)N2CCOCC2c2ncon2)cc1C (centres undefined)	-6.839	11.08	7.732 & 20.61	-0.565	6.14	2.035
Cc1cc(C)cc(OCCC(=O)N2CCCC(n3cncn3)C2)c1 (centres undefined)	-11.99	14.65	8.432	2.235	6.154	-4.215

5 of the entries, repeated:

| structure | Pks13 thioesterase | Toxoplasma | CoaBC | MtTrpRS | LiHisRS | TcHisRS |
|---|---|---|---|---|---|---|
| `Cn1ncc2c(=O)[nH]c(CN3CCCC3c3ccsc3)nc21` (centres undefined) | 4.533 | 5.52 | 0.5102 | -5.726 | 14.55 | 2.339 |
| `CS(=O)(=O)c1ccc(OCCCN2CCc3cncnc3C2)cc1` | -21.28 | -3.482 | 3.636 | 18.3 | 12.5 | -2.882 |
| `Cc1ccc(CN2CCOC3(CCN(C(=O)N4CCCC4)CC3)C2)cc1` | -22.63 | - | 1.903 | -1.057 | 17.54 | 10.75 |
| `OCc1nnc2n1CCN(c1cnccn1)C2` | 14.31 | 21.02 | -0.4878 | - | 24.53 | 7.778 |
| `CN(C)C(=O)CN1C[C@H]2CCN(c3ncccn3)CC[C@H]2S1(=O)=O` | -28.77 | - | 0.9677 | 5.112 | 25 | 9.453 |